Laboratory results taken from the supplement of paper PMC11006884.
What follows is the remainder of the data, with few or none of the targets with a hit. This is a noisy data set. Only a part is listed here, and it is no random draw.

Chains of the proteins cited; added tags and fusions are not shown. Lines headed by an entry give the natural chain unless they say otherwise; changes in a name come on top.
UniProt Q9BZE9, whole entry, looked up: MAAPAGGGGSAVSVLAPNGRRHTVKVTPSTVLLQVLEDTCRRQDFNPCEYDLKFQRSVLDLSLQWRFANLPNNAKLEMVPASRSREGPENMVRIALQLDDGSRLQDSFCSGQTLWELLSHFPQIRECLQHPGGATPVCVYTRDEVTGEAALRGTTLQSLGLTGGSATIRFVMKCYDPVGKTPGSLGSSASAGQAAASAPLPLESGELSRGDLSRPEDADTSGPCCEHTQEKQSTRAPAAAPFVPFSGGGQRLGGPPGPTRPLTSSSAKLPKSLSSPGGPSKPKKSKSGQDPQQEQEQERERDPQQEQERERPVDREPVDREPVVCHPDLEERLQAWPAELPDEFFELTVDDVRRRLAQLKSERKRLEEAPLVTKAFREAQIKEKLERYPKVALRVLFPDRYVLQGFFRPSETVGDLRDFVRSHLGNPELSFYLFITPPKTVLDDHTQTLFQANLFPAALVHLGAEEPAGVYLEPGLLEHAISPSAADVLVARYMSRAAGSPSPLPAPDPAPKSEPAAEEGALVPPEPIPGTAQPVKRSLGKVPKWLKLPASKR
UniProt Q9C0E8: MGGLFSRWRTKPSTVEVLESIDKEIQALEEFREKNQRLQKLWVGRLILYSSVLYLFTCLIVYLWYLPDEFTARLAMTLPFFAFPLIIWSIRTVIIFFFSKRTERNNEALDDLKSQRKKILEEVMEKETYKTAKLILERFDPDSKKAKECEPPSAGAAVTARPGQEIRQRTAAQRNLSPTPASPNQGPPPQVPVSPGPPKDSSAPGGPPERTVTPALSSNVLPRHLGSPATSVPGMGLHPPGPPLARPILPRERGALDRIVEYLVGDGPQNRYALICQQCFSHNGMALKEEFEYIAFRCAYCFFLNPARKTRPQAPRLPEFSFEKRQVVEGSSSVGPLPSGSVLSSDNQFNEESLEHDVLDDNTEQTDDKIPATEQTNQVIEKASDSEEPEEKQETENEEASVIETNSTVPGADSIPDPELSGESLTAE
UniProt Q9GZN1, whole entry, looked up: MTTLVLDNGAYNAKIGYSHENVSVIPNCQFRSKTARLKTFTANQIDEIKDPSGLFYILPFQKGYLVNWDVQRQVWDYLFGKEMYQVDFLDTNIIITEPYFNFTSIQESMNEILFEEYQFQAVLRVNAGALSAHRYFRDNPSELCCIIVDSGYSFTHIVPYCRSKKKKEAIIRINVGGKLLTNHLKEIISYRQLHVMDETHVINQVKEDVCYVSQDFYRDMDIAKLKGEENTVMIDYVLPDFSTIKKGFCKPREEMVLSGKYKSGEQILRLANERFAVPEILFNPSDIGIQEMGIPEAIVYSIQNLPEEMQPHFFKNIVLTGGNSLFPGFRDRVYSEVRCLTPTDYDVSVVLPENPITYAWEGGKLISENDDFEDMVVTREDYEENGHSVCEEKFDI
UniProt Q9H2J4: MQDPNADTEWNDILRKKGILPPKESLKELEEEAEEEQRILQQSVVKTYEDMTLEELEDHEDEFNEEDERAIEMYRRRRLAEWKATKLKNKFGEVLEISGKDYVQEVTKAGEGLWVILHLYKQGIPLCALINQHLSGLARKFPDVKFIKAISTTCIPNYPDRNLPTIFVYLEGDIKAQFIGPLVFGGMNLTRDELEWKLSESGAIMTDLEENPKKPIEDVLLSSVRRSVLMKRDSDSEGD
UniProt Q9BY41: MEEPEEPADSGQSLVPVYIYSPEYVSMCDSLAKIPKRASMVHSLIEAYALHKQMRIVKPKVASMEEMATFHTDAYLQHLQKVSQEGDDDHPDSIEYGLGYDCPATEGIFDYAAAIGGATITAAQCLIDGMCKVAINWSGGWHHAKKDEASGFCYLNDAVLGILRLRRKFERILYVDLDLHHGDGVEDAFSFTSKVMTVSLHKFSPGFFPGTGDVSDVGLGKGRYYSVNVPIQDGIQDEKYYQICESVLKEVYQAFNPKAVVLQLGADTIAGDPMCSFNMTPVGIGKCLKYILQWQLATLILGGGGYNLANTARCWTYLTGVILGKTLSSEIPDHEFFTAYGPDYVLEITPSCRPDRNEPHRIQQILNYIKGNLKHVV
UniProt Q9H1A4, whole entry, looked up: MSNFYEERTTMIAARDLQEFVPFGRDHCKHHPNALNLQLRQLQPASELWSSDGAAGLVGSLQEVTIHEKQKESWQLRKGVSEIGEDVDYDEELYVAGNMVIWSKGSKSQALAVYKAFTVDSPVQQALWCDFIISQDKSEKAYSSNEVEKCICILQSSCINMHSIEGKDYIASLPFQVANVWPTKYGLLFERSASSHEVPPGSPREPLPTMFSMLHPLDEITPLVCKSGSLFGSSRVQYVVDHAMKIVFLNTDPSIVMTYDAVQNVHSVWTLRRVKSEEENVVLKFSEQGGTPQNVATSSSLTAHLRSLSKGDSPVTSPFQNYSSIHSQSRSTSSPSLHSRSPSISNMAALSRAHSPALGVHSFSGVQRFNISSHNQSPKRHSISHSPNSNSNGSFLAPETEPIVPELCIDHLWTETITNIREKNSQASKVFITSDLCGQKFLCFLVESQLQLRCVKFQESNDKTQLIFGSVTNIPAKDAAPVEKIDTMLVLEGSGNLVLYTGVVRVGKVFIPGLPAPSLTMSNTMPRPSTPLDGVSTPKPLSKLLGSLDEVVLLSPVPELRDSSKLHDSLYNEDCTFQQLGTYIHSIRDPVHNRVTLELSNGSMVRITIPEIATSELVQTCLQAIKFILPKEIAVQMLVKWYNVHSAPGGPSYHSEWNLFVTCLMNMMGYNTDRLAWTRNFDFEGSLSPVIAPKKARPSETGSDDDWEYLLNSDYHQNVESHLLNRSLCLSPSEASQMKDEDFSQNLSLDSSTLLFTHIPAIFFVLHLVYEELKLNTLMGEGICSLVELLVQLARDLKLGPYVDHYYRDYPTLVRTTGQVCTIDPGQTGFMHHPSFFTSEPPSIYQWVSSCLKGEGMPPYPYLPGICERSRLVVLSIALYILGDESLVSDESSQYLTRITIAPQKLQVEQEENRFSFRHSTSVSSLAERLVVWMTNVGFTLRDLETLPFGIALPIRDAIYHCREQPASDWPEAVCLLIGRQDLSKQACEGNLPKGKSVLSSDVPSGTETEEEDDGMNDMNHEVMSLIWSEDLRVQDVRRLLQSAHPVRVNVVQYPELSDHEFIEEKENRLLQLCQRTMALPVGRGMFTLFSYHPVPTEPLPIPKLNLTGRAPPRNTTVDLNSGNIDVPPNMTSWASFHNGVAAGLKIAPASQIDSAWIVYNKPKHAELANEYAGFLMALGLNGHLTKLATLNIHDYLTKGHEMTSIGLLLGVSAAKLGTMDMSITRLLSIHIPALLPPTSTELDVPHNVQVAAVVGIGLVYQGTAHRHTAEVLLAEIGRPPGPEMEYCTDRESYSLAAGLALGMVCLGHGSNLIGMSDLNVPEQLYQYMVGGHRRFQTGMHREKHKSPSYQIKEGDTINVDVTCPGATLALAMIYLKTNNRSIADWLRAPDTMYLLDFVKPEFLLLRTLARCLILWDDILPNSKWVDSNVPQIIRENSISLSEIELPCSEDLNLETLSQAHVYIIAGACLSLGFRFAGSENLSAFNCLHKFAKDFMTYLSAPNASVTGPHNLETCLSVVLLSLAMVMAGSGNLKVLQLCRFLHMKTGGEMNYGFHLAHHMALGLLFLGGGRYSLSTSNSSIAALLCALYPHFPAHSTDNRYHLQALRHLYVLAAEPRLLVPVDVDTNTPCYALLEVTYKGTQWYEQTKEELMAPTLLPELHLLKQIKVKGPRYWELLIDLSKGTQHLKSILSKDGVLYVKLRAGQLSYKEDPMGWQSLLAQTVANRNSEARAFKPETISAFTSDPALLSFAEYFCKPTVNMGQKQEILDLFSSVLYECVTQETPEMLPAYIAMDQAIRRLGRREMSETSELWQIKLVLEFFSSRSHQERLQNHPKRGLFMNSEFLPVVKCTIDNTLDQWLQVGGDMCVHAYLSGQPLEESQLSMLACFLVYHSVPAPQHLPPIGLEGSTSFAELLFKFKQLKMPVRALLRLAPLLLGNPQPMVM
UniProt Q9C0C9: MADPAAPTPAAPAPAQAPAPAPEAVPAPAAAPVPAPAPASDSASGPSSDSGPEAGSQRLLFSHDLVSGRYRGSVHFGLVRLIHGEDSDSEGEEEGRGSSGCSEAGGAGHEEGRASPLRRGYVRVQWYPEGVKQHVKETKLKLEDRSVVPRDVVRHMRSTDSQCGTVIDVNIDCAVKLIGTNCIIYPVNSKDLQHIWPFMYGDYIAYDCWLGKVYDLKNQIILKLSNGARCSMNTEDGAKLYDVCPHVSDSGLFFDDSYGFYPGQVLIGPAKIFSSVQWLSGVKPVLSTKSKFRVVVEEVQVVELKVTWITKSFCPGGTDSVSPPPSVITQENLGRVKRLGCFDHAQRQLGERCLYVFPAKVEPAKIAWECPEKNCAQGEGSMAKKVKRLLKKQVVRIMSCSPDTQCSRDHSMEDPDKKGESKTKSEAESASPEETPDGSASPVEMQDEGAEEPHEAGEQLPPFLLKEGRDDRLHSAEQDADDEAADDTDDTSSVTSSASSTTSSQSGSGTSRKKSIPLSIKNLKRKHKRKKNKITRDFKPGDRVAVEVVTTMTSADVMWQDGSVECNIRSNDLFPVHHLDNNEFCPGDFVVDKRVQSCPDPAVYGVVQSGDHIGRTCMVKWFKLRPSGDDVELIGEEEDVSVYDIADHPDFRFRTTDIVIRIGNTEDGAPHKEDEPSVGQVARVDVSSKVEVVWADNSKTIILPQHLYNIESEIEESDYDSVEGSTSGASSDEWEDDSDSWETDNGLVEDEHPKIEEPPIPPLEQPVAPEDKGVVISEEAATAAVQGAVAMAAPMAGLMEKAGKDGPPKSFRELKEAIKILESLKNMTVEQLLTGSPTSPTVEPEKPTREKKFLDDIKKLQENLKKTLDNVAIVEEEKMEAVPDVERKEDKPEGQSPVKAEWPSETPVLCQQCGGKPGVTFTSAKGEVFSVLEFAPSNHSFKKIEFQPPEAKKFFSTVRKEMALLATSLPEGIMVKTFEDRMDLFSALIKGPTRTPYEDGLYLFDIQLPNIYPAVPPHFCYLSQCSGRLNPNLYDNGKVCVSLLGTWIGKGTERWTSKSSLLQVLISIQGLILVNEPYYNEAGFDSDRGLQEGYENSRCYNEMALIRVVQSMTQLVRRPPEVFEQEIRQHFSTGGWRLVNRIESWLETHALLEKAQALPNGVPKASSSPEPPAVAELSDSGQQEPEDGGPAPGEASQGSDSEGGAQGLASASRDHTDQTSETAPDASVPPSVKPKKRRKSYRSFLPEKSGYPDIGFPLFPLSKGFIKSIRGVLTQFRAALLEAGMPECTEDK
UniProt Q9GZU8: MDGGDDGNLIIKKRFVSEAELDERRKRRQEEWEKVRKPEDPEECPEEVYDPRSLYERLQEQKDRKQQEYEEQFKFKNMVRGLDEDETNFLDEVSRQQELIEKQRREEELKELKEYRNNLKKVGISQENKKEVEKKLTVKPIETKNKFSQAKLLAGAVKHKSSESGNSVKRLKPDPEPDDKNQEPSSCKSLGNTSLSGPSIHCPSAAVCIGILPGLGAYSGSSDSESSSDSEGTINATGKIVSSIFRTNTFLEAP
UniProt Q9BYI3: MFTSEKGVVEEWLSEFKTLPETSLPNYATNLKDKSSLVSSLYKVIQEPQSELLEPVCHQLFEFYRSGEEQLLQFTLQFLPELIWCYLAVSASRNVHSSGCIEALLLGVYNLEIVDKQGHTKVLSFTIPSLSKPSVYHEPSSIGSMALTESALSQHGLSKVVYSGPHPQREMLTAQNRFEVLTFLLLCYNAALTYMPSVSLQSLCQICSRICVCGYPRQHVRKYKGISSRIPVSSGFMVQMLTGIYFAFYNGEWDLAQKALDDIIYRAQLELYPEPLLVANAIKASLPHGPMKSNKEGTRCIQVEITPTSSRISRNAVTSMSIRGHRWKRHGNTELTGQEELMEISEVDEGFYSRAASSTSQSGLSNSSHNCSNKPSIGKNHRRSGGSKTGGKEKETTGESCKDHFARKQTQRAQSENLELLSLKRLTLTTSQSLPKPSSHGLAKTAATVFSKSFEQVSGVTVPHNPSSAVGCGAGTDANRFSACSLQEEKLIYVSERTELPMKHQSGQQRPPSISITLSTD
UniProt Q9BZV1: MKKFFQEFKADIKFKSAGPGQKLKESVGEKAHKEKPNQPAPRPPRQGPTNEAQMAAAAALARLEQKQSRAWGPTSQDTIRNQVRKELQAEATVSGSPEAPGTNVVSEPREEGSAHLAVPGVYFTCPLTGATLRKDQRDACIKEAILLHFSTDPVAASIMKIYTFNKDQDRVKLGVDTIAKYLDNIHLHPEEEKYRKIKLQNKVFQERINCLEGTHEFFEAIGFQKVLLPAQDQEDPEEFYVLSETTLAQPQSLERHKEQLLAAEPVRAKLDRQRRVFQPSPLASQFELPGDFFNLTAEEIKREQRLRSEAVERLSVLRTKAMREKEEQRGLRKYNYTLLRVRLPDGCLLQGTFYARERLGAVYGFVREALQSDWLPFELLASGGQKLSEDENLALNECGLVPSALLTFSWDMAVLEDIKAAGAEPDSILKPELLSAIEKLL

Compound: COC(=O)/C=C/c1ccccc1 [methyl cinnamate]
Assay: log2 ratio of iodoacetamide-alkyne labeling of the cysteine site, DMSO over compound (competition); higher = stronger covalent engagement of the cysteine by the compound, active = 1 or more
Details: 500 µM; treatment time 1 h; system: HEK293T cell lysate
How it was run: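 The log2 competition ratio per cysteine is defined as mean reporter intensity in control channels over mean reporter intensity in compound channels. Lysate from HEK293T cells (2 mg/mL) received electrophile (500 µM) or vehicle for 1 h at ambient temperature, followed by iodoacetamide alkyne for 1 h. Samples were clicked to sCIP-TMT reagents, pooled, trypsin-digested overnight at 37 °C, streptavidin-enriched, acid-eluted and run on Orbitrap Eclipse LC-MS/MS with FAIMS, with quantification in FragPipe. Three replicates with duplicate channels were used, and any cysteine quantified in only one replicate was excluded.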

log2 ratio of iodoacetamide-alkyne labeling, inactive:
ASPSCR1 C224 (UniProt Q9BZE9) 0.321
UniProt Q9C0E8_C149 0.3
ACTR6 C28 (UniProt Q9GZN1) 0.192
ASPSCR1 C174 (UniProt Q9BZE9) -0.222
PDCL3 C127 (UniProt Q9H2J4) 0.145
HDAC8 C153 (UniProt Q9BY41) 0.0233
ANAPC1 C1412 (UniProt Q9H1A4) 0.0106
UBE2O C244 (UniProt Q9C0C9) -0.203
UniProt Q9GZU8_C44 0.377
FAM126A C300 (UniProt Q9BYI3) 0.0359
TRMT61B C143 (UniProt Q9BVS5) 0.321
UniProt Q9BXJ9_C214 0.0769
UBXN6 C125 (UniProt Q9BZV1) 0.155
DIDO1 C976 (UniProt Q9BTC0) 0.336
NUDT9 C347 (UniProt Q9BW91) 0.18
UniProt Q9H1E5_C326 0.218

Fetched one by one from the entries so far, 2 records:
log2 ratio of iodoacetamide-alkyne labeling, inactive:
NUDT9 C347 (UniProt Q9BW91) 0.18
HDAC8 C153 (UniProt Q9BY41) 0.0233
